Test results taken from the supplement of paper PMC10338343.
± gives the standard deviation. The entries are a selection whose mix differs from that of the whole data set. The uncertainty is large for many entries. The list shows a part of the results.

Experiments:
[1] = system: MILI (PIWIL2) piRISC loaded with L1MC piRNA (26 nt); assay: pre-steady-state target cleavage rate (min^-1); higher = faster piRNA-guided slicing of the target; settings: guide: L1MC piRNA 5'p-UAACUAAAUACUAUGCAAGCUGUAGG
Method in brief: (§1)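 Cleave-'n-Seq: a transcribed, DNA-blocked target RNA library (0.1 nM) was mixed with 1 nM active affinity-purified piRISC carrying one synthetic guide, with or without 500 nM GTSF1 partner protein, in HEPES–potassium acetate buffer at 33 °C for 0–8 or 0–960 min. Uncleaved targets were sequenced and normalised to depth and to weakly complementary targets. Three trials were pooled, and k3 was capped at 0.0001 min^-1. The pre-steady-state cleavage rate came from a burst-and-steady-state fit.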

[2] = system: MIWI (PIWIL1) piRISC loaded with L1MC piRNA (30 nt); assay: as above; settings: guide: L1MC piRNA 5'p-UAACUAAAUACUAUGCAAGCUGUAGGUCCU
Method in brief: as §1

[3] = system: EfPiwi piRISC loaded with L1MC piRNA (26 nt); assay: pre-steady-state target cleavage rate (min^-1); guide: L1MC piRNA 5'p-UAACUAAAUACUAUGCAAGCUGUAGG; MIWI and MILI are mouse PIWI proteins and EfPiwi is from a freshwater sponge; tags in brackets are library labels; higher = faster piRNA-guided slicing of the target
Method in brief: as §1

[4] = auxiliary factor: none (no GTSF1)
[5] = auxiliary factor: 500 nM Ephydatia muelleri Gtsf1
[6] = auxiliary factor: none (no Gtsf1)
[7] = auxiliary factor: 500 nM mouse GTSF1

| Sequence | pre-steady-state target cleavage rate [1, 4] | pre-steady-state target cleavage rate [2, 4] | pre-steady-state target cleavage rate [3, 5] | pre-steady-state target cleavage rate [3, 6] | pre-steady-state target cleavage rate [1, 7] | pre-steady-state target cleavage rate [2, 7] |
| --- | --- | --- | --- | --- | --- | --- |
| UCCUGGAUGAGGUUGCAUAGAAUUUAGUUA | 0.00198 ± 0.0032 | 0.00253 ± 0.0036 | 0.00108 ± 0.0059 | – | – | – |
| UCCUGCUACAGCUUGCUAUGUAUUUACAAA | 0.000231 ± 0.012 | 0.000446 ± 0.013 | – | 0.000466 ± 0.015 | – | – |
| UCCUGGAUCAGCUUGCAUAGUAUUUAUUA | 0.00122 ± 0.005 | 0.00209 ± 0.0035 | 0.0033 ± 0.0024 | – | – | – |
| UCCUGGAUGUCGAACCAUAGUAUUUAUGUUA | 0.000145 ± 0.037 | 0.000163 ± 0.036 | 0.000204 ± 0.029 | – | – | – |
| UCCUGGAUGUCGAACCAUAGUAUUUAGUUC [g2:g15:cont:t1C] | – | – | < 0.0001 | – | 0.00224 ± 0.0046 | 0.000159 ± 0.024 |
| UCCUGGAUGAGCUUGCAAAGUAUUUACAAA | 0.000856 ± 0.0078 | 0.00209 ± 0.005 | 0.00291 ± 0.0039 | – | – | – |
| UCCUGGAUGUCCUUGCAUAGAUAAAUCAAA [g11:g19:cont:t1A] | 0.000108 ± 0.034 | 0.000385 ± 0.022 | 0.000169 ± 0.015 | – | – | – |
| UCCUGGAUGUCCUUGCAUUCUAUUUAGUAA | 0.000967 ± 0.0069 | 0.000843 ± 0.0068 | 0.000755 ± 0.007 | – | – | – |
| UCCUGCUACAGCUAGCAUAGUAUUUACAAA | 0.00112 ± 0.0056 | 0.00121 ± 0.0065 | 0.00107 ± 0.004 | – | – | – |
| UCCUGGAUGUCGAAGCAUAGUAUUAAGUUA | 0.00179 ± 0.0034 | – | 0.000311 ± 0.0096 | – | – | 0.00119 ± 0.0098 |
| UCCUGCUACAGCAUGCAUAGUAUUUACAAA | 0.000841 ± 0.0082 | 0.000907 ± 0.011 | 0.00164 ± 0.0038 | – | – | – |
| UCCUGGAUGUCCUUGCAUACUAUUUUGUUA | 0.00106 ± 0.0049 | 0.00106 ± 0.0056 | 0.000276 ± 0.011 | – | – | – |
| UCCUGCUACAGCUUGCAUAGUUAAUUCAAA | 0.00143 ± 0.0057 | 0.00075 ± 0.0098 | 0.00202 ± 0.0038 | – | – | – |
| UCCUGGAACUCGUUGCAUAGUAUUUUCAAA | 0.00115 ± 0.0052 | 0.000973 ± 0.0058 | 0.00079 ± 0.0085 | – | – | – |
| UCCUGGAUCAGCUUGGUUAGUAUUUAGAAA | 0.00163 ± 0.0042 | 0.00142 ± 0.0047 | 0.00284 ± 0.0034 | – | – | – |
| UCCUGGAUGUCCUUGCAGUAGUAUUUAGUUA | 0.00146 ± 0.0046 | 0.00118 ± 0.0057 | 0.000341 ± 0.0099 | – | – | – |
| UCCUGGAUGUCCUUGCAUACUAUUUAGUAA | 0.000947 ± 0.0046 | 0.00115 ± 0.0044 | 0.00215 ± 0.0039 | – | – | – |
| UCCUGGAACAGCUUGCUAAGUAUUUACAAA | 0.00105 ± 0.0048 | 0.0012 ± 0.006 | 0.000518 ± 0.0058 | – | – | – |
| UCCUGGAUGUCCUUGCAUAGUAUUAUCUUA | 0.000959 ± 0.0069 | 0.000844 ± 0.0081 | 0.00164 ± 0.0058 | – | – | – |
| UCCUCCUACAGCUUGCAUAGUAAUAAGUUA | 0.00183 ± 0.0039 | 0.00136 ± 0.0038 | 0.0073 ± 0.004 | – | – | – |
| UCCUGGAUGAGCUUGCAUAGUAUAAUGAAA | 0.00104 ± 0.0066 | 0.00347 ± 0.0035 | 0.000663 ± 0.0062 | – | – | – |
| UCCUGGAUCAGCUACGAUAGUAUUUUCAAA | < 0.0001 | 0.000164 ± 0.02 | – | 0.000598 ± 0.012 | – | – |
| UCCUGGUACAGCUUCCAUAGUAUUUAGUAA | 0.000963 ± 0.0078 | 0.000411 ± 0.0066 | 0.00378 ± 0.0022 | – | – | – |

Looked up one by one from above (2):

| Sequence | pre-steady-state target cleavage rate [1, 4] | pre-steady-state target cleavage rate [2, 4] | pre-steady-state target cleavage rate [3, 5] | pre-steady-state target cleavage rate [3, 6] | pre-steady-state target cleavage rate [1, 7] | pre-steady-state target cleavage rate [2, 7] |
| --- | --- | --- | --- | --- | --- | --- |
| UCCUGGUACAGCUUCCAUAGUAUUUAGUAA | 0.000963 ± 0.0078 | 0.000411 ± 0.0066 | 0.00378 ± 0.0022 | – | – | – |
| UCCUGGAACUCGUUGCAUAGUAUUUUCAAA | 0.00115 ± 0.0052 | 0.000973 ± 0.0058 | 0.00079 ± 0.0085 | – | – | – |

Next entries:

| Sequence | pre-steady-state target cleavage rate [1, 4] | pre-steady-state target cleavage rate [2, 4] | pre-steady-state target cleavage rate [3, 5] | pre-steady-state target cleavage rate [3, 6] | pre-steady-state target cleavage rate [1, 7] | pre-steady-state target cleavage rate [2, 7] |
| --- | --- | --- | --- | --- | --- | --- |
| UCCUGGAUGUCGAUGCAUAGUAUUUACAUA | 0.000816 ± 0.0077 | 0.000467 ± 0.013 | 0.00178 ± 0.0045 | – | – | – |
| UCCUGCUACACGAUGCAUAGUAUUUAGAAA | 0.00113 ± 0.0057 | 0.00126 ± 0.0069 | 0.00244 ± 0.0025 | – | – | – |
| UCCUGGAUGUGCUUGCAUAGUAAAUAGUAA | 0.00113 ± 0.0052 | 0.000557 ± 0.0061 | 0.000357 ± 0.011 | – | – | – |
| UCCUGGAUCAGCUUGCAUUCAAUUUUCAAA | 0.000586 ± 0.0094 | 0.000621 ± 0.0079 | 0.000158 ± 0.024 | – | – | – |
| UCCUGGAUCAGCUUGCAAUCUAUUUAGAAA | 0.000221 ± 0.025 | 0.000362 ± 0.0078 | 0.000769 ± 0.0066 | – | – | – |
| UCCUGGAACAGCUUCCAUAGUAUUUUGUUA | 0.000111 ± 0.021 | 0.000729 ± 0.0078 | 0.000855 ± 0.0055 | – | – | – |
| UCCUGCUACAGCUUGGUUAGUAUUUUCAAA | 0.000647 ± 0.012 | 0.000629 ± 0.011 | 0.000418 ± 0.006 | – | – | – |
| UCCUGGAUCAGCUUGCAUUCAAUUUAGUAA | 0.000664 ± 0.0073 | 0.000873 ± 0.0055 | 0.000363 ± 0.0083 | – | – | – |
| UCCUGGUACACGAUGCAUAGUAUUUAGAAA | 0.00308 ± 0.0037 | 0.0026 ± 0.004 | 0.00253 ± 0.0029 | – | – | – |
| UCCUGGUACAGCUUGCAUAGUUUUUACAAA | 0.00071 ± 0.0077 | 0.00166 ± 0.0055 | 0.00111 ± 0.003 | – | – | – |
| UCCUCCUACAGCUUGCUAUAGUAUUUAGUUA | 0.00137 ± 0.0037 | 0.000954 ± 0.0067 | 0.00859 ± 0.0032 | – | – | – |
| UCCUGGAUGUCCUUGCAUAGUAUAAUCAAA [g8:g19:cont:t1A] | 0.000683 ± 0.0068 | 0.00042 ± 0.012 | – | 0.000475 ± 0.013 | – | – |
| UCCUGGUACAGCUUGCAUAGAUAUUAGUUA | 0.00312 ± 0.0032 | 0.00176 ± 0.0038 | 0.000649 ± 0.0068 | – | – | – |
| UCCUGGAUGUCGUUGCAUAGAUAAAUCAAA [g11:g18:cont:t1A] | 0.00048 ± 0.0086 | 0.000576 ± 0.0076 | < 0.0001 | – | – | – |
| UCCUGGAUGUCCAUGCAUAGUAUUUACUUA | 0.00104 ± 0.006 | 0.00127 ± 0.0057 | 0.000352 ± 0.009 | – | – | – |
| UCCUGCUAGUGCUUGCAUAGUAUUUAGUAA | 0.000575 ± 0.0072 | 0.00198 ± 0.0027 | 0.00297 ± 0.0015 | – | – | – |
| UCCUGGAUGUCGUUGCAUACUAAUUAGUUA | 0.000437 ± 0.011 | 0.000891 ± 0.0085 | 0.000318 ± 0.0092 | – | – | – |
| UCCUGGUACAGCUUCGAUAGUAUUUUCAAA | 0.00112 ± 0.0063 | 0.00091 ± 0.008 | 0.000683 ± 0.0092 | – | – | – |
| UCCUGGAACAGCUUGCAAUGUAUUUUCAAA | 0.000553 ± 0.0084 | 0.000956 ± 0.0048 | 0.00126 ± 0.0074 | – | – | – |
| UCCUCCUACAGCUUCCAUAGUAUUAAGUUA | 0.000431 ± 0.012 | 0.000995 ± 0.0054 | 0.00169 ± 0.0021 | – | – | – |
| UCCUGCUACAGCUUCCAUAGUUUUUAGUUA | 0.00107 ± 0.0046 | 0.00112 ± 0.0045 | 0.00175 ± 0.0018 | – | – | – |
| UCCUGGAUCAGCUUGCAUAGUAUUUGUUA | 0.00113 ± 0.0056 | 0.00191 ± 0.0031 | 0.00326 ± 0.0029 | – | – | – |
